In the supplement of paper PMC10849652:
This is one part of the list.

Protein sequences, listed by entry. Tags and fused reporters are not part of them. Lines headed by an entry give the natural chain unless they say otherwise; changes in a name come on top.
UniProt Q9NUM4, whole entry, looked up: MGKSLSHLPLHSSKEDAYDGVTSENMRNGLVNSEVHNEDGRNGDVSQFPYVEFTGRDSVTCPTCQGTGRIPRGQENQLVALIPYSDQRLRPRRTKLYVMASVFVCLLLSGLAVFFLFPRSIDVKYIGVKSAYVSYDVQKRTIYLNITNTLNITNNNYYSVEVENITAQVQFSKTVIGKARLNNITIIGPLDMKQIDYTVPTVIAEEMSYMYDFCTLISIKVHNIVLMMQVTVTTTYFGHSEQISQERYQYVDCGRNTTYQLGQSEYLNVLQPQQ
UniProt Q9BU02: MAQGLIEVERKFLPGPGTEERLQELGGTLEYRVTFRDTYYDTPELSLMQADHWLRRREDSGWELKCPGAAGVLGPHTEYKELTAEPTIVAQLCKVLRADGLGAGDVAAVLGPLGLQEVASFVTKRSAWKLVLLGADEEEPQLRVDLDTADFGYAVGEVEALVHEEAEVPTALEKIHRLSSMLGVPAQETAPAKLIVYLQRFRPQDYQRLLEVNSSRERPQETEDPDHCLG
UniProt Q969X1: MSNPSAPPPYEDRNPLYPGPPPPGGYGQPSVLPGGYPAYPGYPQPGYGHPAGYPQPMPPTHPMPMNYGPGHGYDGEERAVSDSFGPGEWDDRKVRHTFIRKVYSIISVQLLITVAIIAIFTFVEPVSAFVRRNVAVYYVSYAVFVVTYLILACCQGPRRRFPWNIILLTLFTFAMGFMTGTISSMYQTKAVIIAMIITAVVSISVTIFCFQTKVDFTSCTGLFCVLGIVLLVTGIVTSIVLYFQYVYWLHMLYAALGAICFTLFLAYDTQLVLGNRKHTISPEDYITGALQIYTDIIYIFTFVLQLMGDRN
UniProt Q5T1C6: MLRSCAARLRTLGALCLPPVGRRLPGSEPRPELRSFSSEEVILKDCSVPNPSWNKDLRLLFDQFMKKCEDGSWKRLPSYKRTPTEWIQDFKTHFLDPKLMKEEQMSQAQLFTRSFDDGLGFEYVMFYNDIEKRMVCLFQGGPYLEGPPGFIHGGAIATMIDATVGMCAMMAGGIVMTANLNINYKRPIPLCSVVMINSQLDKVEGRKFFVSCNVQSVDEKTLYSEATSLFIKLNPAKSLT
UniProt Q9H061: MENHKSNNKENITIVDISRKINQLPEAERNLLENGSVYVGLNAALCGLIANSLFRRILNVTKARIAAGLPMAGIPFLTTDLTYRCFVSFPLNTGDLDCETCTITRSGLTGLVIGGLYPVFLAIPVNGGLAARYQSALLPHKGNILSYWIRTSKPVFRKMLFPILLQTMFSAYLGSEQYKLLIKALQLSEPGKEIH
UniProt Q9Y2S6, whole entry, looked up: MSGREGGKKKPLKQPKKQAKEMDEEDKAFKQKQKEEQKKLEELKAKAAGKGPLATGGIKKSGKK
UniProt Q8NI27: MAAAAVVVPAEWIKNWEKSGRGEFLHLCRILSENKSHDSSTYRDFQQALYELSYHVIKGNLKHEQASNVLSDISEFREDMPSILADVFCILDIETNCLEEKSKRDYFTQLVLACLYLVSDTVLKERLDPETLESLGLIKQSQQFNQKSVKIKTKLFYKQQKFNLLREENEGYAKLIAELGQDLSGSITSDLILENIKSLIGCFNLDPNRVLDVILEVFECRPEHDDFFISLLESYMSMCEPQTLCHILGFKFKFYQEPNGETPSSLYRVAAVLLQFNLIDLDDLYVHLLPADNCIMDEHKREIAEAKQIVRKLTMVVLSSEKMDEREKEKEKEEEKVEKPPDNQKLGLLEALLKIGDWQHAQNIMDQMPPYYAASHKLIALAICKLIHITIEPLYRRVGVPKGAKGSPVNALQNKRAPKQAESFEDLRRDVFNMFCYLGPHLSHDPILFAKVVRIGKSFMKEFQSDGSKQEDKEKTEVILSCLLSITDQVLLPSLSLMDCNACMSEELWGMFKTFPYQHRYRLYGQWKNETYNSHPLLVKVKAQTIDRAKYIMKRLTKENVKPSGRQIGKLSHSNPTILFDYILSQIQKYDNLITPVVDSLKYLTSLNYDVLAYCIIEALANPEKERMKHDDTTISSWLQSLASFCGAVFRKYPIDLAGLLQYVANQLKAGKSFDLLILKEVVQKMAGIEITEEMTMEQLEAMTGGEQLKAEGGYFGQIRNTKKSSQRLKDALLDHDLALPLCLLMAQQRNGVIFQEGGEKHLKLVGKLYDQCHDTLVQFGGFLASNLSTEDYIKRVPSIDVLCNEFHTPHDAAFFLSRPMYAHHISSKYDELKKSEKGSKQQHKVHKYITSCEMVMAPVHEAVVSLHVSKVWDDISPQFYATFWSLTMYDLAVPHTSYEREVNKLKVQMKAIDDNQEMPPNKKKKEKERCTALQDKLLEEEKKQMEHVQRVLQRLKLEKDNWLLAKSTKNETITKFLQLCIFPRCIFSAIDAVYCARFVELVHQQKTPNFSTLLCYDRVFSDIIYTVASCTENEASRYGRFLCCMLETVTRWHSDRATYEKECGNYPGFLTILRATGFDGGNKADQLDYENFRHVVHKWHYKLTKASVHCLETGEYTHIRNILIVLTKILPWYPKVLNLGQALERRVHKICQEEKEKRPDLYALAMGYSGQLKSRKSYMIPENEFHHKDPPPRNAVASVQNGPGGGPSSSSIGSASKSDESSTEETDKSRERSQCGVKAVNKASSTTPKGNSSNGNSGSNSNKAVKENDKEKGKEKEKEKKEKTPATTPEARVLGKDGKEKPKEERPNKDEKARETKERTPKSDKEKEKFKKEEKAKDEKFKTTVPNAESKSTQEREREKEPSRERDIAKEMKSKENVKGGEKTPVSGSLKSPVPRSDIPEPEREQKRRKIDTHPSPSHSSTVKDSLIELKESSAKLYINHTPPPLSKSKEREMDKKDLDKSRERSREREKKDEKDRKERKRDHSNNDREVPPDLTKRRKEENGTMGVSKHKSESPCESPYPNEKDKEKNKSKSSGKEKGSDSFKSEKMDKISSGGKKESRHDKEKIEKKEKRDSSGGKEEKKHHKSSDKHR
UniProt Q86XR7, whole entry, looked up: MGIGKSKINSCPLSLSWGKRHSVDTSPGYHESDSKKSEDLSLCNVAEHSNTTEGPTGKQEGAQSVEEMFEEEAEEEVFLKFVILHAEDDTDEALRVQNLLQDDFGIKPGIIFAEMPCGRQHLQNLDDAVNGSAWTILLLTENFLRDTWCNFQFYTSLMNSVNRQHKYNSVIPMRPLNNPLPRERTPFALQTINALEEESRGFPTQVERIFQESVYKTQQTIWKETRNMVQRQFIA
UniProt Q15363: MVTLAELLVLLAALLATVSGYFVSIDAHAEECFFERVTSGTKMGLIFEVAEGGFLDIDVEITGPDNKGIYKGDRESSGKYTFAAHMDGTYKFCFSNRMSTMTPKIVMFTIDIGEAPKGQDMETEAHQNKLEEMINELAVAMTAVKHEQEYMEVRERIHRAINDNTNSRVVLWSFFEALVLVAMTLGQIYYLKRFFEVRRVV
UniProt Q9P016: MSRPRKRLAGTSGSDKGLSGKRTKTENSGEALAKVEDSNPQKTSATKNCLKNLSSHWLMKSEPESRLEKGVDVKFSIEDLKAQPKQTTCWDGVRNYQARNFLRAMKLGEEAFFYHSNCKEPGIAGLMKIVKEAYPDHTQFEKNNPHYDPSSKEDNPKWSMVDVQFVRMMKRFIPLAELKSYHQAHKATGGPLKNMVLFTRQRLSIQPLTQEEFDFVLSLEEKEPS
UniProt O60830: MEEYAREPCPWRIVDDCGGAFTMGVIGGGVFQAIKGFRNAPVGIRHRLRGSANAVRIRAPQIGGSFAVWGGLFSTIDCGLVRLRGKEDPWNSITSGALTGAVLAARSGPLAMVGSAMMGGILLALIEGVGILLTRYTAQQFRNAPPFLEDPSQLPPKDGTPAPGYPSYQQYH
UniProt Q9UM00: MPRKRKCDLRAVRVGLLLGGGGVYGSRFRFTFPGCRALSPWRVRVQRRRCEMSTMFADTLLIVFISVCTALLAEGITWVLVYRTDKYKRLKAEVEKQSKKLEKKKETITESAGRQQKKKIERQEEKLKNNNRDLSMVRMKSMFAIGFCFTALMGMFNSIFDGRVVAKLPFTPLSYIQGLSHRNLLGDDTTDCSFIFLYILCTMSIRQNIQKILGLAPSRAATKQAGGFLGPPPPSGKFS
UniProt Q9BSF4: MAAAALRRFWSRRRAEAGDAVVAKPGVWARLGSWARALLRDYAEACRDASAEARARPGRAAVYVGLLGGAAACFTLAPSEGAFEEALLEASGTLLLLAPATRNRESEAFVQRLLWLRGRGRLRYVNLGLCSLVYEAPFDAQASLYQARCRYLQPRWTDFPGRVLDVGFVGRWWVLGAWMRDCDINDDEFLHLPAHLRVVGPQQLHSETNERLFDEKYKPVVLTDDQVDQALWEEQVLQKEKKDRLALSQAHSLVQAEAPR
UniProt Q9BXJ8: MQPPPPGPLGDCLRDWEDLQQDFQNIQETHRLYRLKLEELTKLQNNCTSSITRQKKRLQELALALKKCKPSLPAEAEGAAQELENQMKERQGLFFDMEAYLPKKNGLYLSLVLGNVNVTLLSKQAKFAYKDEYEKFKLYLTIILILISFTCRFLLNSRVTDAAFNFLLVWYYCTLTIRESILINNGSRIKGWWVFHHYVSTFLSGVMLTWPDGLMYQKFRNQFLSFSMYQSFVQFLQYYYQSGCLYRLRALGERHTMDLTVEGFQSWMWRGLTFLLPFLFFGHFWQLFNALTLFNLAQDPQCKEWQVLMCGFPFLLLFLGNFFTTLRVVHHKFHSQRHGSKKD
UniProt Q12893: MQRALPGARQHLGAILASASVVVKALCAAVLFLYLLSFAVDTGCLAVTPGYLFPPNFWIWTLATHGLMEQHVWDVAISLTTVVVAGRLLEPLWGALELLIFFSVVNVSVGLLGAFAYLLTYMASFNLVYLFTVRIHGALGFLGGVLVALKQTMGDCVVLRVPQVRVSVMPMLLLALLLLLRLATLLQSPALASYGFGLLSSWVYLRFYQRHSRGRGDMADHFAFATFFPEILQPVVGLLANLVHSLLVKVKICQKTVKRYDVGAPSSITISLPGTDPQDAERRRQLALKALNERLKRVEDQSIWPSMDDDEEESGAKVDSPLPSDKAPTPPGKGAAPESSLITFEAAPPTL
UniProt Q9HD45: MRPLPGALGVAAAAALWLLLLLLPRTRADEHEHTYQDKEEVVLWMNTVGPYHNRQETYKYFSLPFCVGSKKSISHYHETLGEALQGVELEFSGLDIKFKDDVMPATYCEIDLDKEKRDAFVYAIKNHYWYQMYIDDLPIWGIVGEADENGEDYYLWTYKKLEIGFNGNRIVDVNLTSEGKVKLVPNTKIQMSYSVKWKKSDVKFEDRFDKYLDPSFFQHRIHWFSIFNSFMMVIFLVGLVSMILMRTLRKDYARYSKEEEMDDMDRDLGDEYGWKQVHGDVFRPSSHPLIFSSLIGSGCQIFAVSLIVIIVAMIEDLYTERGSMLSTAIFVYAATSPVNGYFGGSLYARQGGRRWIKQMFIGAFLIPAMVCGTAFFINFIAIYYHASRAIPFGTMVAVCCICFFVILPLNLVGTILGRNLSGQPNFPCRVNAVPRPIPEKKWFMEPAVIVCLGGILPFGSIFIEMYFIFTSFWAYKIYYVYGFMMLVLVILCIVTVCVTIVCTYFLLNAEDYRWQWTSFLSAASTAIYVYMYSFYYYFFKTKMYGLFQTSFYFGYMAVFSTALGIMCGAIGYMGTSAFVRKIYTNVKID

Key:
Test in all cases: log2 fold change, soluble protein after heating vs DMSO (PISA); higher = thermal stabilisation; K562 lysate, 10 uM; active = over 0.2 and 3.5 SD of the protein, either way, in both replicates (recomputed)
vemurafenib = compound: CCCS(=O)(=O)Nc1ccc(F)c(C(=O)c2c[nH]c3ncc(-c4ccc(Cl)cc4)cc23)c1F [vemurafenib]
Method in brief: (§1)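 The values are log-two fold changes in thermal stability compared with solvent controls and come from duplicates. They were obtained by TMTpro 16plex LC-MS/MS, with channel sums equalised, on the supernatant after 21,000xg for 90 min. That supernatant came from crude K562 extract at 1 mg/mL protein treated with 10 μM compound for 30 min, heated for 3 min across 48°C-58°C, pooled and brought to 0.5% NP-40 at 4°C.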

[1] = compound: CCCS(=O)(=O)Nc1ccc(F)c(C(=O)c2c[nH]c3ncc(Cl)cc23)c1F
Method in brief: as §1

barasertib = compound: CCN(CCCOc1ccc2c(Nc3cc(CC(=O)Nc4cccc(F)c4)[nH]n3)ncnc2c1)CCOP(=O)(O)O [barasertib]
Method in brief: as §1

[2] = compound: CC[C@@H]1C(=O)N(C)c2cnc(Nc3ccc(C(=O)NC4CCN(C)CC4)cc3OC)nc2N1C1CCCC1
Method in brief: as §1

volasertib = compound: CC[C@@H]1C(=O)N(C)c2cnc(Nc3ccc(C(=O)N[C@H]4CC[C@H](N5CCN(CC6CC6)CC5)CC4)cc3OC)nc2N1C(C)C [volasertib]
Method in brief: as §1

[3] = compound: CCn1c(C(=O)N(C2CC2)C2CC2)cc2c3c(ncn3C)c(Nc3cc(C)n(C)n3)nc21
Method in brief: as §1

[4] = compound: CCn1cc(-c2ccnc3[nH]c(-c4cccc(CN(C)C)c4)cc23)c(-c2ccc(NC(=O)N(C)C)cc2)n1
Method in brief: as §1

[5] = compound: CN1CCC(CNc2ccc3ncc(-c4cccc(OC(F)(F)F)c4)n3n2)CC1
Method in brief: as §1

saracatinib = compound: CN1CCN(CCOc2cc(OC3CCOCC3)c3c(Nc4c(Cl)ccc5c4OCO5)ncnc3c2)CC1 [saracatinib]
Method in brief: as §1

sotrastaurin = compound: CN1CCN(c2nc(C3=C(c4c[nH]c5ccccc45)C(=O)NC3=O)c3ccccc3n2)CC1 [sotrastaurin]
Method in brief: as §1

alvocidib = compound: CN1CC[C@H](c2c(O)cc(O)c3c(=O)cc(-c4ccccc4Cl)oc23)[C@H](O)C1 [alvocidib]
Method in brief: as §1

Tubastatin A = compound: CN1CCc2c(c3ccccc3n2Cc2ccc(C(=O)NO)cc2)C1 [Tubastatin A]
Method in brief: as §1

[6] = compound: CNC(=O)C1=CC=CC=C1NC2=NC(=NC=C2Cl)NC3=C(C=C(C=C3)N4CCOCC4)OC
Method in brief: as §1

defactinib = compound: CNC(=O)c1ccc(Nc2ncc(C(F)(F)F)c(NCc3nccnc3N(C)S(C)(=O)=O)n2)cc1 [defactinib]
Method in brief: as §1

[7] = compound: CNc1nc(-c2ccc3c(N)n[nH]c3c2)cc(N2C[C@@H](C(=O)NC3CCCCC3)CC[C@H]2C)n1
Method in brief: as §1

encorafenib = compound: COC(=O)N[C@@H](C)CNc1nccc(-c2cn(C(C)C)nc2-c2cc(Cl)cc(NS(C)(=O)=O)c2F)n1 [encorafenib]
Method in brief: as §1

[8] = compound: COC(=O)[C@H](CCSC)NC(=O)C1=C(C=C(C=C1)NC[C@H](CS)N)C2=CC=CC=C2
Method in brief: as §1

alisertib = compound: COc1cc(Nc2ncc3c(n2)-c2ccc(Cl)cc2C(c2c(F)cccc2OC)=NC3)ccc1C(=O)O [alisertib]
Method in brief: as §1

[9] = compound: COc1cc2nc(-c3cc(F)ccc3O)nc(N[C@@H]3CNC[C@H]3C(C)(C)O)c2cc1OC
Method in brief: as §1

gefitinib = compound: COc1cc2ncnc(Nc3ccc(F)c(Cl)c3)c2cc1OCCCN1CCOCC1 [gefitinib]
Method in brief: as §1

Measured: log2 fold change

TMEM106B (UniProt Q9NUM4)
inactive: vemurafenib -0.037 | [1] -0.036 | barasertib 0.049 | [2] 0.028 | volasertib 0.058 | [3] -0.017 | [4] 0.063 | [5] 0.051 | saracatinib 0.004 | sotrastaurin 0.007 | alvocidib -0.064 | Tubastatin A 0.012 | [6] 0.052 | defactinib 0.028 | [7] -0.105 | encorafenib 0.014 | [8] -0.043 | alisertib -0.043 | [9] 0.004 | gefitinib -0.046

THTPA (UniProt Q9BU02)
inactive: vemurafenib 0.009 | [1] 0.054 | barasertib -0.092 | [2] 0.073 | volasertib 0.034 | [3] -0.016 | [4] 0.084 | [5] 0.02 | saracatinib -0.04 | sotrastaurin -0.029 | alvocidib 0.011 | Tubastatin A 0.009 | [6] -0.008 | defactinib 0.018 | [7] 0.04 | encorafenib 0.062 | [8] -0.002 | alisertib -0.208 | [9] -0.078 | gefitinib 0.009

TMBIM1 (UniProt Q969X1)
inactive: vemurafenib -0.022 | [1] 0.105 | barasertib 0.031 | [2] -0.025 | volasertib 0.044 | [3] 0.056 | [4] -0.071 | [5] 0.131 | saracatinib -0.064 | sotrastaurin 0.126 | alvocidib -0.072 | Tubastatin A 0.021 | [6] -0.003 | defactinib 0.007 | [7] -0.087 | encorafenib -0.052 | [8] -0.075 | alisertib 0.05 | [9] 0.022 | gefitinib -0.054

THEM4 (UniProt Q5T1C6)
inactive: vemurafenib -0.03 | [1] 0.002 | barasertib -0.02 | [2] 0.037 | volasertib 0.019 | [3] 0.001 | [4] 0.012 | [5] 0.032 | saracatinib -0.042 | sotrastaurin -0.027 | alvocidib 0.029 | Tubastatin A 0.032 | [6] 0.008 | defactinib 0.025 | [7] 0.015 | encorafenib 0.014 | [8] -0.012 | alisertib 0.07 | [9] 0.017 | gefitinib 0.042

TMEM126A (UniProt Q9H061)
inactive: vemurafenib 0.019 | [1] 0.02 | barasertib -0.017 | [2] 0.023 | volasertib 0.002 | [3] -0.014 | [4] -0.021 | [5] -0.009 | saracatinib 0 | sotrastaurin -0.052 | alvocidib 0.046 | Tubastatin A 0.073 | [6] 0.101 | defactinib -0.002 | [7] -0.038 | encorafenib 0.022 | [8] 0.14 | alisertib -0.031 | [9] -0.012 | gefitinib 0.01

TMA7 (UniProt Q9Y2S6)
inactive: vemurafenib 0.026 | [1] -0.046 | barasertib -0.032 | [2] -0.012 | volasertib 0.015 | [3] -0.014 | [4] -0.106 | [5] 0.078 | saracatinib 0.016 | sotrastaurin -0.017 | alvocidib -0.013 | Tubastatin A 0.083 | [6] 0.018 | defactinib -0.022 | [7] -0.102 | encorafenib -0.082 | [8] 0.031 | alisertib 0.005 | [9] 0.006 | gefitinib 0.023

THOC2 (UniProt Q8NI27)
inactive: vemurafenib -0.015 | [1] 0.004 | barasertib 0.004 | [2] -0.015 | volasertib -0.028 | [3] 0.005 | [4] -0.039 | [5] -0.018 | saracatinib 0.029 | sotrastaurin 0.019 | alvocidib -0.015 | Tubastatin A -0.068 | [6] 0.02 | defactinib 0.005 | [7] 0.005 | encorafenib -0.012 | [8] 0.081 | alisertib 0.006 | [9] -0.022 | gefitinib 0.002

TICAM2 isoform 2 (UniProt Q86XR7)
inactive: vemurafenib -0.012 | [1] 0.002 | barasertib -0.008 | [2] -0.075 | volasertib 0.033 | [3] -0.032 | [4] -0.12 | [5] 0.037 | saracatinib -0.02 | sotrastaurin -0.005 | alvocidib -0.006 | Tubastatin A 0.007 | [6] -0.006 | defactinib -0.018 | [7] -0.191 | encorafenib 0.063 | [8] -0.042 | alisertib 0.029 | [9] -0.013 | gefitinib -0.02

TMED2 (UniProt Q15363)
inactive: vemurafenib -0.018 | [1] 0.003 | barasertib 0.034 | [2] 0.035 | volasertib -0.017 | [3] -0.022 | [4] -0.039 | [5] 0.012 | saracatinib -0.032 | sotrastaurin 0.004 | alvocidib 0.006 | Tubastatin A 0.044 | [6] 0.009 | defactinib 0 | [7] 0.01 | encorafenib 0.028 | [8] -0.039 | alisertib 0.018 | [9] -0.019 | gefitinib 0.017

THYN1 (UniProt Q9P016)
inactive: vemurafenib -0.065 | [1] 0.003 | barasertib 0.012 | [2] -0.062 | volasertib -0.007 | [3] 0.037 | [4] 0.057 | [5] -0.079 | saracatinib -0.02 | sotrastaurin 0.015 | alvocidib 0.019 | Tubastatin A -0.015 | [6] -0.001 | defactinib 0.044 | [7] -0.007 | encorafenib -0.016 | [8] -0.014 | alisertib -0.008 | [9] -0.023 | gefitinib -0.027

TIMM17B (UniProt O60830)
inactive: vemurafenib 0.055 | [1] -0.006 | barasertib 0.015 | [2] 0.029 | volasertib 0.053 | [3] 0.046 | [4] -0.01 | [5] 0.039 | saracatinib -0.032 | sotrastaurin -0.008 | alvocidib -0.017 | Tubastatin A -0.011 | [6] -0.01 | defactinib -0.011 | [7] 0.044 | encorafenib 0.018 | [8] -0.015 | alisertib -0.013 | [9] -0.005 | gefitinib 0.041

TMCO1 (UniProt Q9UM00)
inactive: vemurafenib -0.02 | [1] -0.002 | barasertib 0.057 | [2] 0.085 | volasertib -0.012 | [3] 0.085 | [4] 0.058 | [5] -0.006 | saracatinib 0.026 | sotrastaurin 0.02 | alvocidib 0.072 | Tubastatin A 0.016 | [6] 0.002 | defactinib -0.002 | [7] 0.045 | encorafenib -0.011 | [8] -0.067 | alisertib 0.025 | [9] -0.108 | gefitinib 0.044

TIMM29 (UniProt Q9BSF4)
inactive: vemurafenib 0.082 | [1] 0.049 | barasertib 0.015 | [2] 0.014 | volasertib 0.036 | [3] -0.036 | [4] -0.002 | [5] -0.072 | saracatinib 0.014 | sotrastaurin 0.065 | alvocidib -0.015 | Tubastatin A 0.094 | [6] 0.038 | defactinib 0.051 | [7] 0.034 | encorafenib 0.004 | [8] 0.059 | alisertib 0.011 | [9] -0.004 | gefitinib -0.019

TMEM120A (UniProt Q9BXJ8)
inactive: vemurafenib -0.111 | [1] 0.021 | barasertib 0.099 | [2] -0.021 | volasertib 0.003 | [3] -0.007 | [4] 0.017 | [5] -0.093 | saracatinib -0.031 | sotrastaurin 0.03 | alvocidib 0.049 | Tubastatin A 0.041 | [6] 0.032 | defactinib 0.166 | [7] 0.157 | encorafenib 0.021 | [8] 0.296 | alisertib -0.048 | [9] 0.013 | gefitinib 0.06

2 successive entries from above:
TMCO1 (UniProt Q9UM00)
inactive: vemurafenib -0.02 | [1] -0.002 | barasertib 0.057 | [2] 0.085 | volasertib -0.012 | [3] 0.085 | [4] 0.058 | [5] -0.006 | saracatinib 0.026 | sotrastaurin 0.02 | alvocidib 0.072 | Tubastatin A 0.016 | [6] 0.002 | defactinib -0.002 | [7] 0.045 | encorafenib -0.011 | [8] -0.067 | alisertib 0.025 | [9] -0.108 | gefitinib 0.044

TIMM29 (UniProt Q9BSF4)
inactive: vemurafenib 0.082 | [1] 0.049 | barasertib 0.015 | [2] 0.014 | volasertib 0.036 | [3] -0.036 | [4] -0.002 | [5] -0.072 | saracatinib 0.014 | sotrastaurin 0.065 | alvocidib -0.015 | Tubastatin A 0.094 | [6] 0.038 | defactinib 0.051 | [7] 0.034 | encorafenib 0.004 | [8] 0.059 | alisertib 0.011 | [9] -0.004 | gefitinib -0.019

The listing continues.

TMEM115 (UniProt Q12893)
inactive: vemurafenib -0.059 | [1] 0.064 | barasertib 0.008 | [2] -0.017 | volasertib 0.014 | [3] 0.009 | [4] -0.039 | [5] 0.033 | saracatinib 0.033 | sotrastaurin -0.063 | alvocidib -0.018 | Tubastatin A 0.036 | [6] -0.045 | defactinib -0.048 | [7] 0.128 | encorafenib 0.027 | [8] 0.04 | alisertib 0.058 | [9] 0.003 | gefitinib -0.075

TM9SF3 (UniProt Q9HD45)
inactive: vemurafenib -0.031 | [1] 0.009 | barasertib 0.015 | [2] 0.064 | volasertib -0.001 | [3] -0.018 | [4] 0.002 | [5] 0.052 | saracatinib -0.04 | sotrastaurin 0.012 | alvocidib -0.051 | Tubastatin A 0.004 | [6] -0.006 | defactinib 0.066 | [7] -0.019 | encorafenib 0.021 | [8] -0.016 | alisertib -0.011 | [9] 0.001 | gefitinib 0.044
